For the assay, the target named is T1, WT hBest1-GFP (human) (UniProt O76090).
T1 sequence: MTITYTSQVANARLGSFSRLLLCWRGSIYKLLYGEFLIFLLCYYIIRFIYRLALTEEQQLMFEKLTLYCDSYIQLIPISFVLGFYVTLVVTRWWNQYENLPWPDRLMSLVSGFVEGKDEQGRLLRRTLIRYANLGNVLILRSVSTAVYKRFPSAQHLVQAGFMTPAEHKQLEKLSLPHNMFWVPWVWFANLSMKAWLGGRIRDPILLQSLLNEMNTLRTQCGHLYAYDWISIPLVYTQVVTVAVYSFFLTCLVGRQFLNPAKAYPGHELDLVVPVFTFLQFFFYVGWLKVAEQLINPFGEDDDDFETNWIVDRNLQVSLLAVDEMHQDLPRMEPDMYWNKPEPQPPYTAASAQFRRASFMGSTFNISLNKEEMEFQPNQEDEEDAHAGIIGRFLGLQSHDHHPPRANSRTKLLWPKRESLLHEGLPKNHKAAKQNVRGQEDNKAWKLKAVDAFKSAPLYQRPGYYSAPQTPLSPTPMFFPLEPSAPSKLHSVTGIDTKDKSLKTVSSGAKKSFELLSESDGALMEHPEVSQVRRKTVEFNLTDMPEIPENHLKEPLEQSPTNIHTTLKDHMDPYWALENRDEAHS
The assay can be described thus: co-IP; lysate of hBest1 P274R iPSC-RPE 48 h after BacMam baculovirus infection; 50 mM Tris-HCl, 150 mM NaCl, 1% NP-40; GFP antibody and protein G beads, 1 h at 4 °C; blot with hBest1 antibody.

No constants are given. Whether binding was seen depends on the method and setting. In cells and extracts the contact can be indirect. Tags and fused reporters may be left off the sequences shown.

B1: endogenous hBest1 P274R (protein, UniProt O76090 1-585)
chain: MTITYTSQVANARLGSFSRLLLCWRGSIYKLLYGEFLIFLLCYYIIRFIYRLALTEEQQLMFEKLTLYCDSYIQLIPISFVLGFYVTLVVTRWWNQYENLPWPDRLMSLVSGFVEGKDEQGRLLRRTLIRYANLGNVLILRSVSTAVYKRFPSAQHLVQAGFMTPAEHKQLEKLSLPHNMFWVPWVWFANLSMKAWLGGRIRDPILLQSLLNEMNTLRTQCGHLYAYDWISIPLVYTQVVTVAVYSFFLTCLVGRQFLNPAKAYPGHELDLVVRVFTFLQFFFYVGWLKVAEQLINPFGEDDDDFETNWIVDRNLQVSLLAVDEMHQDLPRMEPDMYWNKPEPQPPYTAASAQFRRASFMGSTFNISLNKEEMEFQPNQEDEEDAHAGIIGRFLGLQSHDHHPPRANSRTKLLWPKRESLLHEGLPKNHKAAKQNVRGQEDNKAWKLKAVDAFKSAPLYQRPGYYSAPQTPLSPTPMFFPLEPSAPSKLHSVTGIDTKDKSLKTVSSGAKKSFELLSESDGALMEHPEVSQVRRKTVEFNLTDMPEIPENHLKEPLEQSPTNIHTTLKDHMDPYWALENRDEAHS
In the case of B1, the binding result was “no binding”.

The values above are taken from article PMC6081419 (Nature Communications, 2018).
